Source: paper PMC4873981
Results are given in words; binding and its absence hold for the method and conditions named. Binding seen in cells or lysates may run through a third protein. Some binding calls cover weakened binding; strength is not graded here.

The chains behind the UniProt entries cited, without tags or fusion partners.
UniProt P84024: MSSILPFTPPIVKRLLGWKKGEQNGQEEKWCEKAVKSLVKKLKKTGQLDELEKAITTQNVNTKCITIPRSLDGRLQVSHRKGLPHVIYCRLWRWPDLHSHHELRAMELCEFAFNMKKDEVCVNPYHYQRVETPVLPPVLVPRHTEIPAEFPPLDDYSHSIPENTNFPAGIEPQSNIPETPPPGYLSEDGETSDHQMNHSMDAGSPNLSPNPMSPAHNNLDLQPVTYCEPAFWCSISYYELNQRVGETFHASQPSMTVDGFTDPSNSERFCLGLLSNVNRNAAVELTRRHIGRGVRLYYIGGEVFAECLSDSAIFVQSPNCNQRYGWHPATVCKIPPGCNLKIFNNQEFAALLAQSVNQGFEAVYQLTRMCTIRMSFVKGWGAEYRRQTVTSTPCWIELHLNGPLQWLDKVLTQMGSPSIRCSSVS
UniProt F1SJP0: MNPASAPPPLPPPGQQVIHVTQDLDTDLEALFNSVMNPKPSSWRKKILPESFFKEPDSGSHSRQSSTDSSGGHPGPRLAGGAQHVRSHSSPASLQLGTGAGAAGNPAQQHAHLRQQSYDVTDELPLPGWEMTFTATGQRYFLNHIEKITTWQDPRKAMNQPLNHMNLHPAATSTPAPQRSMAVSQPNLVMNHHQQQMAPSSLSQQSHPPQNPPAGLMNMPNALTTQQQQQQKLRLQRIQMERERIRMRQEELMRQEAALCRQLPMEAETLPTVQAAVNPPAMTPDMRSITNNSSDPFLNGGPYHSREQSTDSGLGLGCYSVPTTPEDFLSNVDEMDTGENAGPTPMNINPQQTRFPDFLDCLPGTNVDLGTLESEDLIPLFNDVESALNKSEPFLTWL

Molecular target: Smad3, endogenous (pig (endogenous in LLC-PK1)) (UniProt P84024)
Test: co-IP; endogenous proteins, LLC-PK1 cells on BioFlex plates, non-stretch or cyclic stretch 6 h, with or without TGFβ; IPs with antibodies against MRTF, TAZ or Smad3

For “TAZ, endogenous (from UniProt F1SJP0 1-398)”, the binding was “binds”.
